In PubChem BioAssay AID248 (DTP/NCI, 2004):
The list is a part of this screen's results and no random one: it gathers tests that were run many times, whatever their T/C, doses with no T/C, and many T/C values between a quarter and a half above the control. Further doses and runs are listed elsewhere. T/C is the treated group as % of the vehicle group. Some doses have a count of surviving animals in place of a T/C: the source holds a T/C of zero for them, seemingly a mark for toxic or unscored doses. Some survivor counts are full or nearly so, which does not show that the dose was tolerated: survival well below the control is almost never listed, so the zero probably covers shortened survival too. Counts of survivors are from the toxicity check (mostly the fifth day) where no day follows; animals may have died later. Schedule codes are those of the source, read here as Q, the interval in days (D) or hours (H), X, the number of doses. Some schedule codes hold Z or #, which are not explained here. For survival time, this PubChem deposit counts one and a half times the control or more as active, and values a quarter to a half above the control carry no call in these data; other NCI protocols may use other cut-offs. Some doses were run more than once; the results are listed from low to high. Some T/C values are followed by the survivors on the day toxicity was checked, most often the fifth; without a count, all were alive then.

System: L1210 leukemia ip in BDF1 mice, survival T/C
Test: NCI In Vivo Anticancer Drug Screen. Data for tumor model L1210 Leukemia (intraperitoneal) in B6D2F1 (BDF1) mice
Conditions: higher T/C = longer survival

O=NN(CCCl)C(=O)NC1CCCCC1
T/C (T/C endpoint: mean survival time, dose: 33.0 mg/kg/injection, schedule: Q01DX001 (iv), vehicle: saline): 144 % of control | T/C (T/C endpoint: mean survival time, dose: 37.5 mg/kg/injection, schedule: Q01DX001 (ip), vehicle: saline): 143 % of control | T/C (T/C endpoint: mean survival time, dose: 40.0 mg/kg/injection, schedule: Q01DX001 (ip), vehicle: saline): 130 % of control [6 of 7 alive] | T/C (T/C endpoint: mean survival time, dose: 40.0 mg/kg/injection, schedule: Q## X032 (ip), vehicle: carboxymethylcellulose (CMC), evaluated on day 46): 189 [9 of 10 alive] and 415 % of control | T/C (T/C endpoint: mean survival time, dose: 40.0 mg/kg/injection, schedule: Q## X032 (ip), vehicle: carboxymethylcellulose (CMC), evaluated on day 60): 562 and 584 % of control | T/C (T/C endpoint: mean survival time, dose: 50.0 mg/kg/injection, schedule: Q01DX001 (ip), vehicle: Klucel (hydroxypropylcellulose) (HPC), evaluated on day 30): 242 and 279 % of control | T/C (T/C endpoint: mean survival time, dose: 50.0 mg/kg/injection, schedule: Q01DX001 (ip), vehicle: Klucel (hydroxypropylcellulose) (HPC), evaluated on day 60): 124 [9 of 10 alive] and 232 % of control | T/C (T/C endpoint: mean survival time, dose: 50.0 mg/kg/injection, schedule: Q01DX001 (ip), vehicle: carboxymethylcellulose (CMC), evaluated on day 45): 424, 434, 448, 468, 517 % of control | T/C (T/C endpoint: mean survival time, dose: 50.0 mg/kg/injection, schedule: Q01DX001 (ip), vehicle: carboxymethylcellulose (CMC), evaluated on day 46): 608 % of control | T/C (T/C endpoint: mean survival time, dose: 50.0 mg/kg/injection, schedule: Q01DX001 (ip), vehicle: carboxymethylcellulose (CMC), evaluated on day 60): 486, 718, 879 % of control | T/C (T/C endpoint: mean survival time, dose: 50.0 mg/kg/injection, schedule: Q01DX001 (ip), vehicle: carboxymethylcellulose (CMC), run until all animals had died): 236, 298, 306, 318, 320, 349, 370, 589 % of control | survivor count (T/C endpoint: mean survival time, dose: 50.0 mg/kg/injection, schedule: Q01DX001 (ip), vehicle: clinical formulation): 3 of 6 | T/C (T/C endpoint: mean survival time, dose: 50.0 mg/kg/injection, schedule: Q01DX005 (ip), vehicle: carboxymethylcellulose (CMC)): 142 % of control | survivor count (T/C endpoint: mean survival time, dose: 50.0 mg/kg/injection, schedule: Q03HX008 (ip), vehicle: carboxymethylcellulose (CMC)): 9 of 10 | T/C (T/C endpoint: mean survival time, dose: 50.0 mg/kg/injection, schedule: Q04DX003 (ip), vehicle: carboxymethylcellulose (CMC)): 138 % of control | T/C (T/C endpoint: mean survival time, dose: 50.0 mg/kg/injection, schedule: Q## X001 (ip), vehicle: carboxymethylcellulose (CMC), evaluated on day 45): 567 % of control | T/C (T/C endpoint: mean survival time, dose: 50.0 mg/kg/injection, schedule: Q## X001 (ip), vehicle: carboxymethylcellulose (CMC), evaluated on day 46): 650 and 807 % of control | T/C (T/C endpoint: mean survival time, dose: 50.0 mg/kg/injection, schedule: Q## X001 (ip), vehicle: carboxymethylcellulose (CMC), evaluated on day 99): 351 % of control | T/C (T/C endpoint: mean survival time, dose: 50.0 mg/kg/injection, schedule: Q## X001 (ip), vehicle: carboxymethylcellulose (CMC), run until all animals had died): 498 % of control | survivor count (T/C endpoint: mean survival time, dose: 62.0 mg/kg/injection, schedule: Q01DX Z (ip), vehicle: carboxymethylcellulose (CMC)): 9 of 10 | T/C (T/C endpoint: mean survival time, dose: 75.0 mg/kg/injection, schedule: Q01DX001 (ip), vehicle: carboxymethylcellulose (CMC), evaluated on day 45): 384 % of control | T/C (T/C endpoint: mean survival time, dose: 75.0 mg/kg/injection, schedule: Q01DX001 (ip), vehicle: carboxymethylcellulose (CMC), evaluated on day 46): 127 % of control | T/C (T/C endpoint: mean survival time, dose: 75.0 mg/kg/injection, schedule: Q01DX001 (ip), vehicle: carboxymethylcellulose (CMC), evaluated on day 60): 115, 200, 546 % of control | T/C (T/C endpoint: mean survival time, dose: 75.0 mg/kg/injection, schedule: Q01DX001 (ip), vehicle: carboxymethylcellulose (CMC), run until all animals had died): 337 % of control | survivor count (T/C endpoint: mean survival time, dose: 75.0 mg/kg/injection, schedule: Q01DX001 (ip), vehicle: clinical formulation): 0 of 6 | T/C (T/C endpoint: mean survival time, dose: 75.0 mg/kg/injection, schedule: Q01DX001 (ip), vehicle: saline, evaluated on day 30): 108 and 174 % of control | T/C (T/C endpoint: mean survival time, dose: 75.0 mg/kg/injection, schedule: Q01DX001 (ip), vehicle: saline, run until all animals had died): 133 and 148 % of control | T/C (T/C endpoint: mean survival time, dose: 75.0 mg/kg/injection, schedule: Q## X015 (ip), vehicle: carboxymethylcellulose (CMC)): 147 % of control | survivor count (T/C endpoint: mean survival time, dose: 97.0 mg/kg/injection, schedule: Q01DX001 (oral), vehicle: carboxymethylcellulose (CMC)): 10 of 10 | T/C (T/C endpoint: mean survival time, dose: 100.0 mg/kg/injection, schedule: Q01DX001 (ip), vehicle: Klucel (hydroxypropylcellulose) (HPC), evaluated on day 30): 111 and 223 % of control | T/C (T/C endpoint: mean survival time, dose: 100.0 mg/kg/injection, schedule: Q01DX001 (ip), vehicle: Klucel (hydroxypropylcellulose) (HPC), evaluated on day 60): 86 and 93 % of control | survivor count (T/C endpoint: mean survival time, dose: 100.0 mg/kg/injection, schedule: Q01DX001 (ip), vehicle: carboxymethylcellulose (CMC)): 10 of 10 | survivor count (T/C endpoint: mean survival time, dose: 100.0 mg/kg/injection, schedule: Q01DX Z (ip), vehicle: carboxymethylcellulose (CMC)): 4 of 6 | survivor count (T/C endpoint: mean survival time, dose: 100.0 mg/kg/injection, schedule: Q04DX003 (ip), vehicle: carboxymethylcellulose (CMC)): 10 of 10 | survivor count (T/C endpoint: mean survival time, dose: 100.0 mg/kg/injection, schedule: Q07DX Z (ip), vehicle: carboxymethylcellulose (CMC)): 3 of 6 | T/C (T/C endpoint: mean survival time, dose: 112.0 mg/kg/injection, schedule: Q## X004 (ip), vehicle: carboxymethylcellulose (CMC)): 136 % of control | survivor count (T/C endpoint: mean survival time, dose: 113.0 mg/kg/injection, schedule: Q01DX001 (ip), vehicle: carboxymethylcellulose (CMC)): 9 of 10 | survivor count (T/C endpoint: mean survival time, dose: 125.0 mg/kg/injection, schedule: Q01DX Z (ip), vehicle: carboxymethylcellulose (CMC)): 7 of 10 | T/C (T/C endpoint: mean survival time, dose: 144.0 mg/kg/injection, schedule: Q01DX001 (ip), vehicle: carboxymethylcellulose (CMC)): 141 % of control | survivor count (T/C endpoint: mean survival time, dose: 150.0 mg/kg/injection, schedule: Q01DX001 (ip), vehicle: carboxymethylcellulose (CMC)): 10 of 10 | survivor count (T/C endpoint: mean survival time, dose: 150.0 mg/kg/injection, schedule: Q01DX Z (ip), vehicle: carboxymethylcellulose (CMC)): 2 of 6 | survivor count (T/C endpoint: mean survival time, dose: 168.0 mg/kg/injection, schedule: Q01DX001 (ip), vehicle: carboxymethylcellulose (CMC)): 10 of 10 | survivor count (T/C endpoint: mean survival time, dose: 200.0 mg/kg/injection, schedule: Q01DX001 (ip), vehicle: carboxymethylcellulose (CMC)): 8 of 10 | survivor count (T/C endpoint: mean survival time, dose: 200.0 mg/kg/injection, schedule: Q01DX Z (ip), vehicle: carboxymethylcellulose (CMC)): 0 of 6 | survivor count (T/C endpoint: mean survival time, dose: 200.0 mg/kg/injection, schedule: Q07DX Z (ip), vehicle: carboxymethylcellulose (CMC)): 0 of 6 | survivor count (T/C endpoint: mean survival time, dose: 225.0 mg/kg/injection, schedule: Q01DX001 (ip), vehicle: carboxymethylcellulose (CMC)): 10 of 10 | survivor count (T/C endpoint: mean survival time, dose: 288.0 mg/kg/injection, schedule: Q01DX001 (ip), vehicle: carboxymethylcellulose (CMC)): 8 of 10 | survivor count (T/C endpoint: mean survival time, dose: 400.0 mg/kg/injection, schedule: Q07DX Z (ip), vehicle: carboxymethylcellulose (CMC)): 0 of 6 | survivor count (T/C endpoint: mean survival time, dose: 800.0 mg/kg/injection, schedule: Q01DX001 (ip), vehicle: carboxymethylcellulose (CMC)): 0 of 6 | survivor count (T/C endpoint: mean survival time, dose: 800.0 mg/kg/injection, schedule: Q01DX001 (oral), vehicle: carboxymethylcellulose (CMC)): 2 of 6 | survivor count (T/C endpoint: mean survival time, dose: 800.0 mg/kg/injection, schedule: Q07DX Z (ip), vehicle: carboxymethylcellulose (CMC)): 0 of 6 | T/C (T/C endpoint: median survival time, dose: 12.5 mg/kg/injection, schedule: Q01DX001 (oral), vehicle: Klucel (hydroxypropylcellulose) (HPC)): 127 % of control | T/C (T/C endpoint: median survival time, dose: 75.0 mg/kg/injection, schedule: Q01DX001 (oral), vehicle: Klucel (hydroxypropylcellulose) (HPC)): 147 % of control | T/C (T/C endpoint: median survival time, dose: 100.0 mg/kg/injection, schedule: Q01DX001 (ip), vehicle: saline with Tween-80, evaluated on day 7): 129 % of control | T/C (T/C endpoint: median survival time, dose: 100.0 mg/kg/injection, schedule: Q01DX001 (ip), vehicle: saline with Tween-80, evaluated on day 50): 125 % of control | survivor count (T/C endpoint: median survival time, dose: 100.0 mg/kg/injection, schedule: Q01DX001 (ip), vehicle: steroid suspending solution): 7 of 8
